Experiments:
Format in all cases: cell-based, murine
[1] = test system: Ba/F3 cells expressing human c-KIT with exon 11 deletion of residues 557-558; test: Cell proliferation assay (CellTiter-Glo), Ba/F3 c-KIT exon 11 deletion mutant; conditions: BaF3; Ba/F3, c-KIT exon 11 del 557-558; 72 h; dose range 0.6 to 10,000 nM; mean of at least three experiments; read-out: IC50 of cell proliferation inhibition, Exon 11 (WT)
Experimental: (§1) All mutations were confirmed by DNA sequencing.
(§2) Selective pressure was applied to the transfected cells by removing IL-3 from the culture medium. After IL-independent populations, further selective pressure was applied by also growing the cells in the presence of 1 mg/mL G418. […] The stable pools were further characterized by sequencing genomic DNA to confirm the presence of the transfected c-KIT cDNA.
(§3) This assay utilizes cellular ATP as a marker for cell proliferation/viability. […] Plates were then incubated in a 5% CO2 incubator at 37° C. for 3 days. After 72 h, 100 microliters of lysis/luciferase reagent (CellTiter-Glo, Promega G7573) was added to each well. The cells were then incubated on a shaker for 5 minutes at room temperature, and luminescence was measured on a Victor 5 (Perkin Elmer) spectrophotometer. Growth inhibition was measured by comparing luminescence signal from treated vs. untreated cells in assay plates, and the IC50 analysis of cell proliferation inhibition by compounds was analyzed using Analyze 5 in-house software. […] The IC50 values are mean values calculated from at least three experiments.

[2] = test system: Ba/F3 cells expressing c-KIT Exon 11/V654A Gleevec-resistant double mutant; test: Cell proliferation assay (CellTiter-Glo), Ba/F3 c-KIT exon 11/V654A; conditions: Mus musculus, BaF3, 72 h, dose range 0.6 to 10,000 nM, mean of at least three experiments, read-out: IC50 of cell proliferation inhibition, Exon 11/Gleevec-resistant Double Mutant V654A
Experimental: as §1, §2, §3

[3] = test system: Ba/F3 cells expressing c-KIT Exon 11/T670I Gleevec-resistant double mutant; test: Cell proliferation assay (CellTiter-Glo), Ba/F3 c-KIT exon 11/T670I; conditions: Mus musculus, BaF3, 72 h, dose range 0.6 to 10,000 nM, mean of at least three experiments, read-out: IC50 of cell proliferation inhibition, Exon 11/Gleevec-resistant Double Mutant T670I
Experimental: as §1, §2, §3

[4] = test system: Ba/F3 cells expressing c-KIT Exon 11/D816G Gleevec-resistant double mutant; test: Cell proliferation assay (CellTiter-Glo), Ba/F3 c-KIT exon 11/D816G; conditions: Mus musculus, BaF3, 72 h, dose range 0.6 to 10,000 nM, mean of at least three experiments, read-out: IC50 of cell proliferation inhibition, Exon 11/Gleevec-resistant Double Mutant D816G
Experimental: as §1, §2, §3

[5] = test system: Ba/F3 cells expressing c-KIT Exon 11/N822K Gleevec-resistant double mutant; test: Cell proliferation assay (CellTiter-Glo), Ba/F3 c-KIT exon 11/N822K; conditions: Mus musculus, BaF3, 72 h, dose range 0.6 to 10,000 nM, mean of at least three experiments, read-out: IC50 of cell proliferation inhibition, Exon 11/Gleevec-resistant Double Mutant N822K
Experimental: as §1, §2, §3

[6] = test system: Ba/F3 cells expressing c-KIT Exon 11/Y823D Gleevec-resistant double mutant; test: Cell proliferation assay (CellTiter-Glo), Ba/F3 c-KIT exon 11/Y823D; conditions: Mus musculus, BaF3, 72 h, dose range 0.6 to 10,000 nM, mean of at least three experiments, read-out: IC50 of cell proliferation inhibition, Exon 11/Gleevec-resistant Double Mutant Y823D
Experimental: as §1, §2, §3

IC50 [1]: 5 nM
IC50 [2]: 168 nM
IC50 [3]: > 10000 nM
IC50 [4]: 87 nM
IC50 [5]: 221 nM
IC50 [6]: 295 nM
Compound: Cc1ccc(NC(=O)c2ccc(CN3CCN(C)CC3)cc2)cc1Nc1nccc(-c2cccnc2)n1 [Gleevec, imatinib]
